Source: publication PMC7352364
These are yes or no findings as the source states them, for the method shown. Binding seen in cells or lysates may run through a third protein. Some entries that bind do so weakly or less than the wild type.

Protein sequences, listed by entry. Tags and fused reporters are not part of them. Lines headed by an entry give the natural chain unless they say otherwise; changes in a name come on top.
UniProt P14618: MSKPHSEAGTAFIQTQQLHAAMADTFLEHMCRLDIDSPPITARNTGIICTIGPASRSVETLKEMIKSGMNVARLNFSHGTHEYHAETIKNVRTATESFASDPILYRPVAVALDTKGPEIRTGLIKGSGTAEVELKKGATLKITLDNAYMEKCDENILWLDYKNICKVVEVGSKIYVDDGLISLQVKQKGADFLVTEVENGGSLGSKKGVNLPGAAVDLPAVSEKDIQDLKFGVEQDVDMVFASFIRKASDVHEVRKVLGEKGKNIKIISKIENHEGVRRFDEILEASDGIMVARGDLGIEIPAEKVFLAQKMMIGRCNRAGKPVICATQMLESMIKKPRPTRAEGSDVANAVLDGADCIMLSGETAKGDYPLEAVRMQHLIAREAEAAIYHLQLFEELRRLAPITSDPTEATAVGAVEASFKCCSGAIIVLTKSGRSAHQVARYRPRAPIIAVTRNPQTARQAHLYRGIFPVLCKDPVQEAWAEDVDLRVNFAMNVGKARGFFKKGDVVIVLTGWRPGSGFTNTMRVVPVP
UniProt Q93009: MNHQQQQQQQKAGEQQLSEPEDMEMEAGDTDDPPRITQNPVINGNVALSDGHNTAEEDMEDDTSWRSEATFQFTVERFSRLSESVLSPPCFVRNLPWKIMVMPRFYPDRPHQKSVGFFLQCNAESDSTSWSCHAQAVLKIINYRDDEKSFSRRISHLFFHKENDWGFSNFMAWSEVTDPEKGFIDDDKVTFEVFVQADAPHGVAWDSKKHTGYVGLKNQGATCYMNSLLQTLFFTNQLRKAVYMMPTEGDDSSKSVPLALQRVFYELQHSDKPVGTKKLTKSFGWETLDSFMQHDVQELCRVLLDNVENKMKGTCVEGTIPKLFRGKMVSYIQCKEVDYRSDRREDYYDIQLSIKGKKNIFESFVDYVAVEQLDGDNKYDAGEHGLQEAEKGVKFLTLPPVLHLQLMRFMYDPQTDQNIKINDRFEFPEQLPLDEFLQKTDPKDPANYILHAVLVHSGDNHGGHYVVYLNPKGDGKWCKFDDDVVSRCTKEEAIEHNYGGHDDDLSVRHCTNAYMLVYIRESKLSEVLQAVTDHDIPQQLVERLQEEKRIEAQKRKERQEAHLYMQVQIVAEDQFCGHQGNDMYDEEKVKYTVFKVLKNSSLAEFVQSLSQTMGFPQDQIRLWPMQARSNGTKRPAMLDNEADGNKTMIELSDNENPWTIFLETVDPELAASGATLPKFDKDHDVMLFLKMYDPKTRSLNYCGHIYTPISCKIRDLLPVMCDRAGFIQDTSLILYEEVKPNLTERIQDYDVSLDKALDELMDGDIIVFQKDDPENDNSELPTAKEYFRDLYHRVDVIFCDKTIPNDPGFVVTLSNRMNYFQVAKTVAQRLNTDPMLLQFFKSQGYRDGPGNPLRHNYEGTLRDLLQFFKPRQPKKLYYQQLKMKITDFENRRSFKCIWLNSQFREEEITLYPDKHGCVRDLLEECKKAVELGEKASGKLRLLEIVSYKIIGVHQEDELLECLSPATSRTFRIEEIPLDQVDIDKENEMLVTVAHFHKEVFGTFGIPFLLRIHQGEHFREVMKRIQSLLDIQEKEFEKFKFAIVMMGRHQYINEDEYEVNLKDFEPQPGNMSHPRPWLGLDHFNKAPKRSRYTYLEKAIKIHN

Tests used:
[1] = biological target: PKM2, endogenous (human (endogenous in HEK293T)) (UniProt P14618); assay: co-IP; endogenous proteins; HEK293T lysates immunoprecipitated with anti-HAUSP or anti-PKM2 antibody, 4 °C overnight, protein A/G agarose; western blotting
[2] = biological target: GST-PKM2 fusion protein (UniProt P14618); assay: pull-down; GST-PKM2 on glutathione-sepharose beads rotated with HEK293T lysates overexpressing Myc-HAUSP at 4 °C overnight; western blotting; only the target purified
[3] = biological target: Flag-PKM2 (pyruvate kinase isoenzyme M2, wild type) (UniProt P14618); assay: co-IP; HEK293T cells co-transfected with Myc-HAUSP and Flag-PKM2 (wild type or mutants); lysates (50 mM Tris-HCl pH 7.5, 1 mM EDTA, 10% glycerol, 300 mM NaCl, 1% Triton X-100) immunoprecipitated with anti-Myc or anti-Flag antibody, 4 °C overnight, protein A/G agarose; western blotting
[4] = biological target: Flag-PKM2 S346A (UniProt P14618); assay: as above
[5] = biological target: Flag-PKM2 S57A (UniProt P14618); assay: as above
[6] = biological target: Flag-PKM2 S97A (UniProt P14618); assay: as above

Measured: binding

HAUSP, endogenous (from UniProt Q93009 1-1102) (enzyme)
binds: [1]

Myc-HAUSP (herpesvirus-associated ubiquitin-specific protease, wild type) (from UniProt Q93009 1-1102) (enzyme)
not listed: [1]
binds: all other assays above
